Assay results taken from the supplement of paper PMC12595434, “Development of retinoid nuclear receptor pathway antagonists through targeting aldehyde dehydrogenase 1A3” (iScience, 2025).
This is one part of the list. This is a noisy data set.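 Many melting curves are irregular; where none melted, Tm was taken as 64 °C.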

Amino acid sequences for entries named in this document (tags omitted). A change or cut given only in a name is not applied to a line headed by its entry.
UniProt Q9P0V9: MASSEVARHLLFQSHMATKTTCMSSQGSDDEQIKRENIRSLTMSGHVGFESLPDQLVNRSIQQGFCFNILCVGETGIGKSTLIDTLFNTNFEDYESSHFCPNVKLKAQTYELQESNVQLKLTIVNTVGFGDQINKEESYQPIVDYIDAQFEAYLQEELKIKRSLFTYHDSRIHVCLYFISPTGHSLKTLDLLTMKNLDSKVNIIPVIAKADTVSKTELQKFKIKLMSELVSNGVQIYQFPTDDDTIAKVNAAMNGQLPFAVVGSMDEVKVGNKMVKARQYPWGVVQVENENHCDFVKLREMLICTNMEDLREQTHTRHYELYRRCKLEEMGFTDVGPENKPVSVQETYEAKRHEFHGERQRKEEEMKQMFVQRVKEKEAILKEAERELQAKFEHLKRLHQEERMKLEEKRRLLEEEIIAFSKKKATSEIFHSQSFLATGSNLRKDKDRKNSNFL
UniProt Q9NZL4: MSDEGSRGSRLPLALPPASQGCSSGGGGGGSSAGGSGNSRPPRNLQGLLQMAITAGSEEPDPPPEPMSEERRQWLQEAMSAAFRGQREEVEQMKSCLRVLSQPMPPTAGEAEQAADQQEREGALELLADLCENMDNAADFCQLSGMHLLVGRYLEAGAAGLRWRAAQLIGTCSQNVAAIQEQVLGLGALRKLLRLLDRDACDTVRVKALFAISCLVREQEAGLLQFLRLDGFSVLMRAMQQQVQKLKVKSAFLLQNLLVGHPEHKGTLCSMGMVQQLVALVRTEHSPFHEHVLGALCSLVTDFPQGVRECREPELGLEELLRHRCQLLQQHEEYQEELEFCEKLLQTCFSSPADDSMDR
UniProt Q9NW61: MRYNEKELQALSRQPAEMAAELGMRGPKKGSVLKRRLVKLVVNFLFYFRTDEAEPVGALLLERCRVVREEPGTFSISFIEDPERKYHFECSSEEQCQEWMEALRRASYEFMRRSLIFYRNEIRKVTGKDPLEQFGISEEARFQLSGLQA
UniProt Q9NZI8, whole entry: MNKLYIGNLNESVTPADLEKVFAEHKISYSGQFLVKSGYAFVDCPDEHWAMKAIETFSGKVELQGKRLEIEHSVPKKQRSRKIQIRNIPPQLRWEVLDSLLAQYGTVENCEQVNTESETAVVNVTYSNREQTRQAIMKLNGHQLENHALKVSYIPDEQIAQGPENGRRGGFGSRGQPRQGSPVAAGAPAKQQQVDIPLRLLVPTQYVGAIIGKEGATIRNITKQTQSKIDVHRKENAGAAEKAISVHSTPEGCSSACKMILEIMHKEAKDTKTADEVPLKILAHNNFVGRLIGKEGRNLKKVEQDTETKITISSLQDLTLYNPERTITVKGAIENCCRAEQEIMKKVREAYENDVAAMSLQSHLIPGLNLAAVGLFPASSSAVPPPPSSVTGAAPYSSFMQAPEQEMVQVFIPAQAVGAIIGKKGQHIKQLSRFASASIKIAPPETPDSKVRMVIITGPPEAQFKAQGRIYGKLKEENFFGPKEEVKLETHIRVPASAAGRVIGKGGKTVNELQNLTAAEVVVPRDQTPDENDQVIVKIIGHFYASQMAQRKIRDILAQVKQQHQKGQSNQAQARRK
UniProt Q9NVP1: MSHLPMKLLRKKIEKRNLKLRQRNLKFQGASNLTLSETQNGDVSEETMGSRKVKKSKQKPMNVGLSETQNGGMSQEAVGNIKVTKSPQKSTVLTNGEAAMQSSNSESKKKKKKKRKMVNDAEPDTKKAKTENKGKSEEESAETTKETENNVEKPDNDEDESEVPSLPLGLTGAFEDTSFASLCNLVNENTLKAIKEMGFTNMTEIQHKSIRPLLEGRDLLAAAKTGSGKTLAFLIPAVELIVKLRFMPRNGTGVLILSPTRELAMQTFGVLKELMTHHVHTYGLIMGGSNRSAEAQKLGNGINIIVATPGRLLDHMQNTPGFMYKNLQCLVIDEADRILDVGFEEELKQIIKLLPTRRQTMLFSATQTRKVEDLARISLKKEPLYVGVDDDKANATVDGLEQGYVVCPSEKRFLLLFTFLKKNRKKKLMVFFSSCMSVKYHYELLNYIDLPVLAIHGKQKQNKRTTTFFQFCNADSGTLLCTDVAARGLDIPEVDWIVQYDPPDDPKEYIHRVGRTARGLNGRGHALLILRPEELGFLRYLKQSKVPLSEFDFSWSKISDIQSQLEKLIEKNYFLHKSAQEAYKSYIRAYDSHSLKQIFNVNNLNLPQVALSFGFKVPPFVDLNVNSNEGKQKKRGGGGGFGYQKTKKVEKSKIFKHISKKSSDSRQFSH
UniProt Q9NVX2: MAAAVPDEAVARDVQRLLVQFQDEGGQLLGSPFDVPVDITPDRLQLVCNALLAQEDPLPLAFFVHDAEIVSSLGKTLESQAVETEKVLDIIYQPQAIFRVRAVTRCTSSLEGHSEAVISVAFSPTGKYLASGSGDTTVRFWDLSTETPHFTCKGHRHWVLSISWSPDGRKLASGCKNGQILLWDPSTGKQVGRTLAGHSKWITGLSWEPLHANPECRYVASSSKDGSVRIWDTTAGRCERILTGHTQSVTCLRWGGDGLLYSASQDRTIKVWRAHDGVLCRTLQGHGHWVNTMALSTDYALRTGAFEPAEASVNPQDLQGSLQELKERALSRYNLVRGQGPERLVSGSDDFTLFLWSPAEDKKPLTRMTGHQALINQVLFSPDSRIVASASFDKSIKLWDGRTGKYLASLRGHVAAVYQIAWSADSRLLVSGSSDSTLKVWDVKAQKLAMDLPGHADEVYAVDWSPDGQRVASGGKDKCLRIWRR
UniProt Q9NZN3: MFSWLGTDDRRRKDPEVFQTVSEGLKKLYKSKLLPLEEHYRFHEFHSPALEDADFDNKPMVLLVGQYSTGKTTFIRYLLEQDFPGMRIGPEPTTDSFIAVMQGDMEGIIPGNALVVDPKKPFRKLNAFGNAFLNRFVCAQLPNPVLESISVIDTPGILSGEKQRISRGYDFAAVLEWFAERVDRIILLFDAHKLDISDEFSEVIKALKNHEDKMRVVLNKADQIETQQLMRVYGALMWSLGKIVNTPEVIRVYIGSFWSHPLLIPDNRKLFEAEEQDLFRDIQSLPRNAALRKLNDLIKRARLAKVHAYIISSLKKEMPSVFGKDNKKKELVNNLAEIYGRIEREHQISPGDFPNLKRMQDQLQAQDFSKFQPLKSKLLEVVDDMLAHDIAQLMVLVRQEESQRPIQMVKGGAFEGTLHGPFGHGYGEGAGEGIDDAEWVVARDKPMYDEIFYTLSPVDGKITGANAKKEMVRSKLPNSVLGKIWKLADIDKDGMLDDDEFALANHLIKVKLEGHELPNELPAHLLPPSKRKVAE
UniProt Q9P2R7: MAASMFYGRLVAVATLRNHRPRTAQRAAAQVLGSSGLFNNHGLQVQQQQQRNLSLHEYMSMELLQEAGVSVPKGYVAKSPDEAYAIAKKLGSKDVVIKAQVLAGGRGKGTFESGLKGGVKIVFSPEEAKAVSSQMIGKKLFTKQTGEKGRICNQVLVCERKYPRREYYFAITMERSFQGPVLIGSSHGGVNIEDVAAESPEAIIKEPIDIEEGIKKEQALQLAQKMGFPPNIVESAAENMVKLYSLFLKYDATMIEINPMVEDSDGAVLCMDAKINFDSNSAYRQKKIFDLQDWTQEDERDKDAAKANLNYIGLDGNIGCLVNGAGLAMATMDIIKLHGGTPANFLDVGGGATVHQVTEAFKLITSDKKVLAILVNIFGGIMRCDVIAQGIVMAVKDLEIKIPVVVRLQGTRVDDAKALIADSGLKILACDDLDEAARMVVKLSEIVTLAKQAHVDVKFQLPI
UniProt Q9P2J9: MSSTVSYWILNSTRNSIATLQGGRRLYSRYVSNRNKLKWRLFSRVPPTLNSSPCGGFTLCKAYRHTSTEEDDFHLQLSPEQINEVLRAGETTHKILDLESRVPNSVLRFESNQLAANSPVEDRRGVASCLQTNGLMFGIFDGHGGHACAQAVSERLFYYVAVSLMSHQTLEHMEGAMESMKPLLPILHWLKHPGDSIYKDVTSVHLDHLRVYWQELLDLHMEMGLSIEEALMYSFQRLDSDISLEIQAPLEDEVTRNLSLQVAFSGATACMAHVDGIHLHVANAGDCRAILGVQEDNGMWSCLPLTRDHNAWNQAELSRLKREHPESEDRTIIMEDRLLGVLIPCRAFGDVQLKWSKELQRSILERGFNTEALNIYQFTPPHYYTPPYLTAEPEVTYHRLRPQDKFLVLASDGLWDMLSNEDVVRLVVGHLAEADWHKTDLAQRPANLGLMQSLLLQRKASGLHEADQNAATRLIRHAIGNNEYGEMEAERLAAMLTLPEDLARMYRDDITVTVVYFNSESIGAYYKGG
UniProt Q9NXG0: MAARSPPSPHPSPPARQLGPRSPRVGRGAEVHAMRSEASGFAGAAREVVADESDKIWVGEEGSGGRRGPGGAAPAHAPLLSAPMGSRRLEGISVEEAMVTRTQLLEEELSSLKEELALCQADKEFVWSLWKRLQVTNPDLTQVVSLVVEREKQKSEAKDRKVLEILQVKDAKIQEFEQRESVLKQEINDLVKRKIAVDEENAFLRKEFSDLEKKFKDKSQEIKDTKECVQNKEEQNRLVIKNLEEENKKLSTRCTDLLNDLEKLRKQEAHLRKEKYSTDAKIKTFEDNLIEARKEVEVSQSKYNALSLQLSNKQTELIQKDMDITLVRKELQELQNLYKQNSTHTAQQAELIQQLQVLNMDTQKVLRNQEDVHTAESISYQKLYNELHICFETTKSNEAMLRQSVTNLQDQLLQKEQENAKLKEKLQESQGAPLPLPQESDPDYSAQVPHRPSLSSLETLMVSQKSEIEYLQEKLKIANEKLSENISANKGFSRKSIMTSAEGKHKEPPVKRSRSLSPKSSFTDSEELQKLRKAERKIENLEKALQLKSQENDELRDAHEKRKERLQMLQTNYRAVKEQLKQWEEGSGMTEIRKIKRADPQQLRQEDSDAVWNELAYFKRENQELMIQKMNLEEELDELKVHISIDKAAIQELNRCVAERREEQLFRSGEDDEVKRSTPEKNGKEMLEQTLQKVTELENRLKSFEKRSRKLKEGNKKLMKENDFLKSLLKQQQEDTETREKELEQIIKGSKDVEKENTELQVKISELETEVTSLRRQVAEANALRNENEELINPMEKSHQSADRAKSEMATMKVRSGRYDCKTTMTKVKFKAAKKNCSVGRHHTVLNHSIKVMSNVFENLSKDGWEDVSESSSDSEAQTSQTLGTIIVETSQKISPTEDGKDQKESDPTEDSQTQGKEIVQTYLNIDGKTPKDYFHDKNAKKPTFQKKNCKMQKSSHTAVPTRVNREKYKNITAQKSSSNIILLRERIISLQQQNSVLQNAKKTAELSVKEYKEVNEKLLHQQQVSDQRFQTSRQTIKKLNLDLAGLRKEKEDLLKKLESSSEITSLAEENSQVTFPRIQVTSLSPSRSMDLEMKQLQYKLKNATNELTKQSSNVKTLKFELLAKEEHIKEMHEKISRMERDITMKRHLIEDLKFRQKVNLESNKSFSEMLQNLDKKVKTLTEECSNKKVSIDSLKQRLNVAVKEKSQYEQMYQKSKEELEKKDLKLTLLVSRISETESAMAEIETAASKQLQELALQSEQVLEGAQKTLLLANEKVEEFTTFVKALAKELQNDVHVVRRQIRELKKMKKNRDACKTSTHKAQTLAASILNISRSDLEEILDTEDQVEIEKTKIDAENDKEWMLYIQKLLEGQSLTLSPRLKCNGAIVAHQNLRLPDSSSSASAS
UniProt Q9NVX0: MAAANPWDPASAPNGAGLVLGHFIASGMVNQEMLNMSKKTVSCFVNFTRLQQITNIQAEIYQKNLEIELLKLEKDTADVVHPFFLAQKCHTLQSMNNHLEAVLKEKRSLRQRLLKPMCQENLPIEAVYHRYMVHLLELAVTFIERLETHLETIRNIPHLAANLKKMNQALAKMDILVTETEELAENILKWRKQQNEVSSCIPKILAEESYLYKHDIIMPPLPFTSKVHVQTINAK
UniProt Q9UBH6: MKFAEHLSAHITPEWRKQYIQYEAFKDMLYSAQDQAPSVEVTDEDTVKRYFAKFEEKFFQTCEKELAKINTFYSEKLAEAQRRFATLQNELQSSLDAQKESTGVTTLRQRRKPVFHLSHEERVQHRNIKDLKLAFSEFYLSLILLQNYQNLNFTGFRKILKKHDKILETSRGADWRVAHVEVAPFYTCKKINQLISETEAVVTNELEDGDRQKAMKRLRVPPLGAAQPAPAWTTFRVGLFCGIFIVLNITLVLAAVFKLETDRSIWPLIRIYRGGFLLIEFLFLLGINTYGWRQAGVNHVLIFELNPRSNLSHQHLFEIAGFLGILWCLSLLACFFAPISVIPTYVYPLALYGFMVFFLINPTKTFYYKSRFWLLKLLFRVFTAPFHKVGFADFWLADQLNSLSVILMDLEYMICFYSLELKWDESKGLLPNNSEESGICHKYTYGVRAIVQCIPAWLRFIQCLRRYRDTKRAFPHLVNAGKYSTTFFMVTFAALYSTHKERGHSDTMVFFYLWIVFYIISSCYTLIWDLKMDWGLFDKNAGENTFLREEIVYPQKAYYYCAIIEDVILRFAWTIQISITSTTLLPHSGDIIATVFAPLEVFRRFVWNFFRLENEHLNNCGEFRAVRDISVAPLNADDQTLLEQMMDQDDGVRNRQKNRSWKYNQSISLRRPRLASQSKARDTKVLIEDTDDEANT

Compound: CCc1cnccc1C(=O)Nc1cc2c(cc1F)NC(=O)CC2
Experiment: melting temperature shift (DMSO Tm minus MBE1-treated Tm) in cellular thermal proteome profiling; higher = less thermal stabilization by MBE1 (negative = stabilized by MBE1)
Conditions: A375

Target	melting temperature shift (MBE1 concentration: 100 nM)	melting temperature shift (MBE1 concentration: 1 uM)
RBM28 (UniProt Q9NW13)	0.0769 °C	-0.199 °C
DAXX (UniProt Q9UER7)	-0.602 °C	-0.404 °C
COQ3 (UniProt Q9NZJ6)	-2.53 °C	1.73 °C
COPS7A (UniProt Q9UBW8)	-0.49 °C	-0.51 °C
UniProt Q9P0V9	-0.852 °C	0.533 °C
HSPBP1 (UniProt Q9NZL4)	0.946 °C	0.641 °C
THYN1 (UniProt Q9P016)	0.0183 °C	0.641 °C
UniProt Q9NW61	0.0179 °C	0.775 °C
UGGT1 (UniProt Q9NYU2)	-0.926 °C	0.0671 °C
IGF2BP1 (UniProt Q9NZI8)	-0.835 °C	-0.341 °C
DDX18 (UniProt Q9NVP1)	0.989 °C	0.171 °C
ATAD3A (UniProt Q9NVI7)	-0.125 °C	-0.119 °C
FASTKD2 (UniProt Q9NYY8)	1.15 °C	0.672 °C
DHCR7 (UniProt Q9UBM7)	-0.107 °C	0.896 °C
UniProt Q9UBP9	-0.527 °C	-0.565 °C
GRHPR (UniProt Q9UBQ7)	-0.114 °C	0.0805 °C
RBM27 (UniProt Q9P2N5)	-0.861 °C	-0.814 °C
UniProt Q9NY97	-0.691 °C	0.349 °C
ARL8B (UniProt Q9NVJ2)	-2.68 °C	-2.86 °C
LYAR (UniProt Q9NX58)	-0.892 °C	0.557 °C
ZNFX1 (UniProt Q9P2E3)	-0.743 °C	-0.0488 °C
INTS7 (UniProt Q9NVH2)	0.342 °C	1.12 °C
FBXL12 (UniProt Q9NXK8)	-1.56 °C	-0.478 °C
LRWD1 (UniProt Q9UFC0)	-0.365 °C	-0.487 °C
SH3BP4 (UniProt Q9P0V3)	-6.43 °C	-4.17 °C
ASUN (UniProt Q9NVM9)	0.202 °C	-0.171 °C

Target	melting temperature shift (MBE1 concentration: 100 nM)	melting temperature shift (MBE1 concentration: 1 uM)
EPS15L1 (UniProt Q9UBC2)	0.58 °C	0.366 °C
NLE1 (UniProt Q9NVX2)	-3.85 °C	-2.94 °C
MTMR10 (UniProt Q9NXD2)	0.568 °C	-0.44 °C
UniProt Q9P0N9	-0.387 °C	-0.326 °C
ARMC1 (UniProt Q9NVT9)	-0.543 °C	0.861 °C
MRPL16 (UniProt Q9NX20)	0.568 °C	0.415 °C
FKBP14 (UniProt Q9NWM8)	-0.926 °C	1.79 °C
MRPL35 (UniProt Q9NZE8)	0.189 °C	10.9 °C
CFDP1 (UniProt Q9UEE9)	-3.25 °C	-3 °C
KIAA1522 (UniProt Q9P206)	-1.78 °C	-0.0604 °C
UniProt Q9NZN3	0.311 °C	0.153 °C
SUCLA2 (UniProt Q9P2R7)	0.269 °C	-0.458 °C
GEMIN8 (UniProt Q9NWZ8)	2.29 °C	1.06 °C
UniProt Q9P2J9	0.767 °C	1.08 °C
BCCIP (UniProt Q9P287)	0.287 °C	0.476 °C
MTCH1 (UniProt Q9NZJ7)	0.335 °C	0.161 °C
DUS2 (UniProt Q9NX74)	0.989 °C	0.855 °C
TECR (UniProt Q9NZ01)	0.581 °C	0.268 °C
UniProt Q9P2Q2	1.95 °C	1.6 °C
CNTLN (UniProt Q9NXG0)	0 °C	1.75 °C
CNOT2 (UniProt Q9NZN8)	-0.21 °C	0.108 °C
EIF2AK4 (UniProt Q9P2K8)	0.179 °C	-0.0211 °C
HAUS2 (UniProt Q9NVX0)	-0.423 °C	0.0047 °C
XPR1 (UniProt Q9UBH6)	-0.275 °C	0.161 °C
KLHL11 (UniProt Q9NVR0)	-0.299 °C	0.812 °C
SEL1L (UniProt Q9UBV2)	-1.54 °C	0.161 °C

10 successive entries from above:
Target	melting temperature shift (MBE1 concentration: 100 nM)	melting temperature shift (MBE1 concentration: 1 uM)
UniProt Q9NW61	0.0179 °C	0.775 °C
UGGT1 (UniProt Q9NYU2)	-0.926 °C	0.0671 °C
IGF2BP1 (UniProt Q9NZI8)	-0.835 °C	-0.341 °C
DDX18 (UniProt Q9NVP1)	0.989 °C	0.171 °C
ATAD3A (UniProt Q9NVI7)	-0.125 °C	-0.119 °C
FASTKD2 (UniProt Q9NYY8)	1.15 °C	0.672 °C
DHCR7 (UniProt Q9UBM7)	-0.107 °C	0.896 °C
UniProt Q9UBP9	-0.527 °C	-0.565 °C
GRHPR (UniProt Q9UBQ7)	-0.114 °C	0.0805 °C
RBM27 (UniProt Q9P2N5)	-0.861 °C	-0.814 °C
